In US20200207829A1, “CHIMERIC RECEPTORS” (Oxford University Innovation Limited, priority 2017, published 2020):
At least one compound was matched to its structure with a doubt left. Ends that are not written are not given here.

Tested on: dCas9(N/C)-synBDKRB2
Assay: Bradykinin dose-response of dCas9(N/C)-synBDKRB2 (EYFP activation score, HTLA cells)
Type: cell-based
Settings: sgEYFP, bradykinin 0.01 nM-10 μM, read-out: half-maximal effective agonist concentration (EC50)

RPPGFSPFR [bradykinin, Bradykinin] gave an EC50 of 603 nM.
